{"source": "patent US4929601A", "about": "“Tripeptides useful as immunostimulants as well as in the prevention of metastases” (Ellem Industria Farmaceutica, S.p.A., priority 1987, dated 1990)", "assay_type_in_all_cases": "cell-based", "key": {"[1]": {"test_system": "Human T lymphocytes", "experiment": "Effect on cell cycle (propidium iodide, flow cytometer)", "settings": "1 μg/ml, 72 hours with PHA", "protocol": "Human T lymphocytes have been incubated for 72 hours in presence of PHA and the tripeptides under examination (1 μg/ml). DNA has then been stained with propidium iodide and cells have been analyzed with a flow cytometer."}, "[2]": {"test_system": "Human T lymphocytes", "experiment": "Stimulation of lymphokine production in vitro: TCGF (IL-2) activity of supernatants", "protocol": "(§1) Human T lymphocytes have been incubated with PHA and with or without the peptides under examination for 24 hours (in the case of IL-2) or 72 hours (in the case of BCGF).\n(§2) The supernatants have been collected, filtered (0.2 μm) and assayed for the presence of IL-2 or BCGF activity, by adding them at different concentrations to fresh T lymphocytes or to long term cultured B cells. The proliferating activity of these cells, dependent on the presence of the respective growth factor, has been evaluated through 3H-thymidine incorporation."}, "[3]": {"test_system": "pure human T lymphocytes, without macrophages", "experiment": "Lymphokine production by pure human T lymphocytes without macrophages (+IL-1): BCGF activity", "source_text": "as §2\n(§3) The lymphokine production by human T lymphocytes purified through […] on nylon wool column has been evaluated with the same methods as in the previous experiment.\n(§4) In order to obviate the lack of macrophages, recombinant IL-1 β (Genzyme) has been added at the concentration of 25 Units/ml."}, "[4]": {"test_system": "Human T lymphocytes", "experiment": "Stimulation of lymphokine production in vitro: BCGF activity of supernatants", "protocol": "as §1, §2"}, "[5]": {"test_system": "pure human T lymphocytes, without macrophages", "experiment": "Lymphokine production by pure human T lymphocytes without macrophages (+IL-1): TCGF activity", "source_text": "as §2, §3, §4"}, "[6]": {"settings": "1 mcg/ml, 3.125% of supernatant"}, "[7]": {"settings": "10 mcg/ml, 3.125% of supernatant"}, "[8]": {"settings": "10 mcg/ml, 6.25% of supernatant"}, "[9]": {"settings": "10 mcg/ml, 12.5% of supernatant"}}, "note": "At least one peptide structure holds a part that was inferred or is arguable (an end, a ring closure or a residue). Peptide text beside a SMILES is read from it."}
{"compound": "N=C(N)NCCC[C@H](N)C(=O)N[C@@H](CCCCN)C(=O)N[C@@H](CC(=O)O)C(=O)O", "note": "[ARG--LYS--ASP, Arg-Lys-Asp] (H-Arg-Lys-Asp-OH)", "values": [{"measurement": "G2 + M % cells, difference from T + PHA", "setting": "[1]", "value": "+3.40"}, {"measurement": "Go-Gl % cells, difference from T + PHA", "setting": "[1]", "value": -2.57}, {"measurement": "S % cells, difference from T + PHA", "setting": "[1]", "value": "+0.02"}, {"measurement": "CELL PHASES G2 + M % CELLS", "setting": "[1]; T + PHA 6.02", "value": 9.42, "unit": "%"}, {"measurement": "CELL PHASES S % CELLS", "setting": "[1]; T + PHA 30.61", "value": 30.63, "unit": "%"}, {"measurement": "CELL PHASES Go-Gl % CELLS", "setting": "[1]; T + PHA 63.36", "value": 60.79, "unit": "%"}, {"measurement": "TCGF activity Δ %", "setting": "[2]; 3.125% of supernatant", "value": "+122%"}, {"measurement": "TCGF ACTIVITY (mean)", "setting": "[2]; 3.125% of supernatant, T + PHA 1564", "value": 3478, "unit": "COUNTS PER MINUTE"}, {"measurement": "TCGF activity Δ %", "setting": "[2]; 6.25% of supernatant", "value": "+210%"}, {"measurement": "TCGF ACTIVITY (mean)", "setting": "[2]; 6.25% of supernatant, T + PHA 2622", "value": 8139, "unit": "COUNTS PER MINUTE"}, {"measurement": "TCGF activity Δ %", "setting": "[2]; 12.5% of supernatant", "value": "+248%"}, {"measurement": "TCGF ACTIVITY (mean)", "setting": "[2]; 12.5% of supernatant, T + PHA 4012", "value": 13977, "unit": "COUNTS PER MINUTE"}, {"measurement": "TCGF activity Δ %", "setting": "[2]; 25% of supernatant", "value": "+103%"}, {"measurement": "TCGF ACTIVITY (mean)", "setting": "[2]; 25% of supernatant, T + PHA 7824", "value": 15911, "unit": "COUNTS PER MINUTE"}, {"measurement": "TCGF activity Δ %", "setting": "[2]; 50% of supernatant", "value": "+17%"}, {"measurement": "TCGF ACTIVITY (mean)", "setting": "[2]; 50% of supernatant, T + PHA 14086", "value": 16476, "unit": "COUNTS PER MINUTE"}, {"measurement": "BCGF activity Δ %", "setting": "[3]; [6]", "value": "+3%"}, {"measurement": "BCGF ACTIVITY c.p.m.", "setting": "[3]; 1 mcg/ml, 3.125% of supernatant, T + PHA + IL-1 318", "value": 326, "unit": "c.p.m."}, {"measurement": "BCGF activity Δ %", "setting": "[3]; 1 mcg/ml, 6.25% of supernatant", "value": -36, "unit": "%"}, {"measurement": "BCGF ACTIVITY c.p.m.", "setting": "[3]; 1 mcg/ml, 6.25% of supernatant, T + PHA + IL-1 582", "value": 370, "unit": "c.p.m."}, {"measurement": "BCGF activity Δ %", "setting": "[3]; 1 mcg/ml, 12.5% of supernatant", "value": "+67%"}, {"measurement": "BCGF ACTIVITY c.p.m.", "setting": "[3]; 1 mcg/ml, 12.5% of supernatant, T + PHA + IL-1 1104", "value": 1839, "unit": "c.p.m."}, {"measurement": "BCGF activity Δ %", "setting": "[3]; 1 mcg/ml, 25% of supernatant", "value": "+27%"}, {"measurement": "BCGF ACTIVITY c.p.m.", "setting": "[3]; 1 mcg/ml, 25% of supernatant, T + PHA + IL-1 2507", "value": 3186, "unit": "c.p.m."}, {"measurement": "BCGF activity Δ %", "setting": "[3]; 1 mcg/ml, 50% of supernatant", "value": "+77%"}, {"measurement": "BCGF ACTIVITY c.p.m.", "setting": "[3]; 1 mcg/ml, 50% of supernatant, T + PHA + IL-1 5056", "value": 8942, "unit": "c.p.m."}, {"measurement": "BCGF activity Δ %", "setting": "[3]; [7]", "value": "+32%"}, {"measurement": "BCGF ACTIVITY c.p.m.", "setting": "[3]; 10 mcg/ml, 3.125% of supernatant, T + PHA + IL-1 318", "value": 421, "unit": "c.p.m."}, {"measurement": "BCGF activity Δ %", "setting": "[3]; [8]", "value": -21, "unit": "%"}, {"measurement": "BCGF ACTIVITY c.p.m.", "setting": "[3]; 10 mcg/ml, 6.25% of supernatant, T + PHA + IL-1 582", "value": 462, "unit": "c.p.m."}, {"measurement": "BCGF activity Δ %", "setting": "[3]; [9]", "value": "+67%"}, {"measurement": "BCGF ACTIVITY c.p.m.", "setting": "[3]; 10 mcg/ml, 12.5% of supernatant, T + PHA + IL-1 1104", "value": 1847, "unit": "c.p.m."}, {"measurement": "BCGF activity Δ %", "setting": "[3]; 10 mcg/ml, 25% of supernatant", "value": "+18%"}, {"measurement": "BCGF ACTIVITY c.p.m.", "setting": "[3]; 10 mcg/ml, 25% of supernatant, T + PHA + IL-1 2507", "value": 2946, "unit": "c.p.m."}, {"measurement": "BCGF activity Δ %", "setting": "[3]; 10 mcg/ml, 50% of supernatant", "value": "+35%"}, {"measurement": "BCGF ACTIVITY c.p.m.", "setting": "[3]; 10 mcg/ml, 50% of supernatant, T + PHA + IL-1 5056", "value": 6802, "unit": "c.p.m."}, {"measurement": "BCGF activity Δ %", "setting": "[4]; 3.125% of supernatant", "value": "+169%"}, {"measurement": "BCGF ACTIVITY (mean)", "setting": "[4]; 3.125% of supernatant, T + PHA 1345", "value": 3624, "unit": "COUNTS PER MINUTE"}, {"measurement": "BCGF activity Δ %", "setting": "[4]; 6.25% of supernatant", "value": "+199%"}, {"measurement": "BCGF ACTIVITY (mean)", "setting": "[4]; 6.25% of supernatant, T + PHA 2156", "value": 6455, "unit": "COUNTS PER MINUTE"}, {"measurement": "BCGF activity Δ %", "setting": "[4]; 12.5% of supernatant", "value": "+126%"}, {"measurement": "BCGF ACTIVITY (mean)", "setting": "[4]; 12.5% of supernatant, T + PHA 5402", "value": 12219, "unit": "COUNTS PER MINUTE"}, {"measurement": "BCGF activity Δ %", "setting": "[4]; 25% of supernatant", "value": "+10%"}, {"measurement": "BCGF ACTIVITY (mean)", "setting": "[4]; 25% of supernatant, T + PHA 15030", "value": 16554, "unit": "COUNTS PER MINUTE"}, {"measurement": "BCGF activity Δ %", "setting": "[4]; 50% of supernatant", "value": -7, "unit": "%"}, {"measurement": "BCGF ACTIVITY (mean)", "setting": "[4]; 50% of supernatant, T + PHA 17297", "value": 16107, "unit": "COUNTS PER MINUTE"}, {"measurement": "TCGF activity Δ %", "setting": "[5]; [6]", "value": "+34%"}, {"measurement": "TCGF ACTIVITY c.p.m.", "setting": "[5]; 1 mcg/ml, 3.125% of supernatant, T + PHA + IL-1 1696", "value": 2274, "unit": "c.p.m."}, {"measurement": "TCGF activity Δ %", "setting": "[5]; 1 mcg/ml, 6.25% of supernatant", "value": "+85%"}, {"measurement": "TCGF ACTIVITY c.p.m.", "setting": "[5]; 1 mcg/ml, 6.25% of supernatant, T + PHA + IL-1 2817", "value": 5216, "unit": "c.p.m."}, {"measurement": "TCGF activity Δ %", "setting": "[5]; 1 mcg/ml, 12.5% of supernatant", "value": "+145%"}, {"measurement": "TCGF ACTIVITY c.p.m.", "setting": "[5]; 1 mcg/ml, 12.5% of supernatant, T + PHA + IL-1 3663", "value": 8969, "unit": "c.p.m."}, {"measurement": "TCGF activity Δ %", "setting": "[5]; 1 mcg/ml, 25% of supernatant", "value": "+117%"}, {"measurement": "TCGF ACTIVITY c.p.m.", "setting": "[5]; 1 mcg/ml, 25% of supernatant, T + PHA + IL-1 4812", "value": 10421, "unit": "c.p.m."}, {"measurement": "TCGF activity Δ %", "setting": "[5]; 1 mcg/ml, 50% of supernatant", "value": "+57%"}, {"measurement": "TCGF ACTIVITY c.p.m.", "setting": "[5]; 1 mcg/ml, 50% of supernatant, T + PHA + IL-1 6297", "value": 9887, "unit": "c.p.m."}, {"measurement": "TCGF activity Δ %", "setting": "[5]; [7]", "value": "+63%"}, {"measurement": "TCGF ACTIVITY c.p.m.", "setting": "[5]; 10 mcg/ml, 3.125% of supernatant, T + PHA + IL-1 1696", "value": 2769, "unit": "c.p.m."}, {"measurement": "TCGF activity Δ %", "setting": "[5]; [8]", "value": "+118%"}, {"measurement": "TCGF ACTIVITY c.p.m.", "setting": "[5]; 10 mcg/ml, 6.25% of supernatant, T + PHA + IL-1 2817", "value": 6143, "unit": "c.p.m."}, {"measurement": "TCGF activity Δ %", "setting": "[5]; [9]", "value": "+98%"}, {"measurement": "TCGF ACTIVITY c.p.m.", "setting": "[5]; 10 mcg/ml, 12.5% of supernatant, T + PHA + IL-1 3663", "value": 7245, "unit": "c.p.m."}, {"measurement": "TCGF activity Δ %", "setting": "[5]; 10 mcg/ml, 25% of supernatant", "value": "+65%"}, {"measurement": "TCGF ACTIVITY c.p.m.", "setting": "[5]; 10 mcg/ml, 25% of supernatant, T + PHA + IL-1 4812", "value": 7963, "unit": "c.p.m."}, {"measurement": "TCGF activity Δ %", "setting": "[5]; 10 mcg/ml, 50% of supernatant", "value": "+29%"}, {"measurement": "TCGF ACTIVITY c.p.m.", "setting": "[5]; 10 mcg/ml, 50% of supernatant, T + PHA + IL-1 6297", "value": 8143, "unit": "c.p.m."}]}
